Laboratory results as given in publication PMC9597352.

Sequences of proteins named here, by UniProt entry; tags and fusion partners are left off.
UniProt Q96T51: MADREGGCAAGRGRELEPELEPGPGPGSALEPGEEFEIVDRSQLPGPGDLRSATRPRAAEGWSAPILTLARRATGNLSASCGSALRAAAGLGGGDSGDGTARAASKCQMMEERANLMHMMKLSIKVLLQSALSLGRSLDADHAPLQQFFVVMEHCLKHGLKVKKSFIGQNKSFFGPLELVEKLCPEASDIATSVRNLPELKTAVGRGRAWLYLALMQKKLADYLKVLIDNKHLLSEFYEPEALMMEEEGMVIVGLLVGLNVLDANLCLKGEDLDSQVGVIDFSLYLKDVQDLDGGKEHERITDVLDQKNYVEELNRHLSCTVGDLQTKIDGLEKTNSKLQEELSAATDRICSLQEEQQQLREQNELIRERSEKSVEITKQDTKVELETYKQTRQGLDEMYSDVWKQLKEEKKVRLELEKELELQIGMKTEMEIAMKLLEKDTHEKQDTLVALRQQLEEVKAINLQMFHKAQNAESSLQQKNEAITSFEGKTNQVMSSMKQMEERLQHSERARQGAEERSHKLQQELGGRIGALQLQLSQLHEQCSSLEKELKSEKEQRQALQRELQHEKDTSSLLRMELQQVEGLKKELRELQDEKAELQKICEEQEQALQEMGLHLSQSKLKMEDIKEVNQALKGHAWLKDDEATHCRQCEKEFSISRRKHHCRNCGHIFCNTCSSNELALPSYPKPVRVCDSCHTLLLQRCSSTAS
UniProt Q14204: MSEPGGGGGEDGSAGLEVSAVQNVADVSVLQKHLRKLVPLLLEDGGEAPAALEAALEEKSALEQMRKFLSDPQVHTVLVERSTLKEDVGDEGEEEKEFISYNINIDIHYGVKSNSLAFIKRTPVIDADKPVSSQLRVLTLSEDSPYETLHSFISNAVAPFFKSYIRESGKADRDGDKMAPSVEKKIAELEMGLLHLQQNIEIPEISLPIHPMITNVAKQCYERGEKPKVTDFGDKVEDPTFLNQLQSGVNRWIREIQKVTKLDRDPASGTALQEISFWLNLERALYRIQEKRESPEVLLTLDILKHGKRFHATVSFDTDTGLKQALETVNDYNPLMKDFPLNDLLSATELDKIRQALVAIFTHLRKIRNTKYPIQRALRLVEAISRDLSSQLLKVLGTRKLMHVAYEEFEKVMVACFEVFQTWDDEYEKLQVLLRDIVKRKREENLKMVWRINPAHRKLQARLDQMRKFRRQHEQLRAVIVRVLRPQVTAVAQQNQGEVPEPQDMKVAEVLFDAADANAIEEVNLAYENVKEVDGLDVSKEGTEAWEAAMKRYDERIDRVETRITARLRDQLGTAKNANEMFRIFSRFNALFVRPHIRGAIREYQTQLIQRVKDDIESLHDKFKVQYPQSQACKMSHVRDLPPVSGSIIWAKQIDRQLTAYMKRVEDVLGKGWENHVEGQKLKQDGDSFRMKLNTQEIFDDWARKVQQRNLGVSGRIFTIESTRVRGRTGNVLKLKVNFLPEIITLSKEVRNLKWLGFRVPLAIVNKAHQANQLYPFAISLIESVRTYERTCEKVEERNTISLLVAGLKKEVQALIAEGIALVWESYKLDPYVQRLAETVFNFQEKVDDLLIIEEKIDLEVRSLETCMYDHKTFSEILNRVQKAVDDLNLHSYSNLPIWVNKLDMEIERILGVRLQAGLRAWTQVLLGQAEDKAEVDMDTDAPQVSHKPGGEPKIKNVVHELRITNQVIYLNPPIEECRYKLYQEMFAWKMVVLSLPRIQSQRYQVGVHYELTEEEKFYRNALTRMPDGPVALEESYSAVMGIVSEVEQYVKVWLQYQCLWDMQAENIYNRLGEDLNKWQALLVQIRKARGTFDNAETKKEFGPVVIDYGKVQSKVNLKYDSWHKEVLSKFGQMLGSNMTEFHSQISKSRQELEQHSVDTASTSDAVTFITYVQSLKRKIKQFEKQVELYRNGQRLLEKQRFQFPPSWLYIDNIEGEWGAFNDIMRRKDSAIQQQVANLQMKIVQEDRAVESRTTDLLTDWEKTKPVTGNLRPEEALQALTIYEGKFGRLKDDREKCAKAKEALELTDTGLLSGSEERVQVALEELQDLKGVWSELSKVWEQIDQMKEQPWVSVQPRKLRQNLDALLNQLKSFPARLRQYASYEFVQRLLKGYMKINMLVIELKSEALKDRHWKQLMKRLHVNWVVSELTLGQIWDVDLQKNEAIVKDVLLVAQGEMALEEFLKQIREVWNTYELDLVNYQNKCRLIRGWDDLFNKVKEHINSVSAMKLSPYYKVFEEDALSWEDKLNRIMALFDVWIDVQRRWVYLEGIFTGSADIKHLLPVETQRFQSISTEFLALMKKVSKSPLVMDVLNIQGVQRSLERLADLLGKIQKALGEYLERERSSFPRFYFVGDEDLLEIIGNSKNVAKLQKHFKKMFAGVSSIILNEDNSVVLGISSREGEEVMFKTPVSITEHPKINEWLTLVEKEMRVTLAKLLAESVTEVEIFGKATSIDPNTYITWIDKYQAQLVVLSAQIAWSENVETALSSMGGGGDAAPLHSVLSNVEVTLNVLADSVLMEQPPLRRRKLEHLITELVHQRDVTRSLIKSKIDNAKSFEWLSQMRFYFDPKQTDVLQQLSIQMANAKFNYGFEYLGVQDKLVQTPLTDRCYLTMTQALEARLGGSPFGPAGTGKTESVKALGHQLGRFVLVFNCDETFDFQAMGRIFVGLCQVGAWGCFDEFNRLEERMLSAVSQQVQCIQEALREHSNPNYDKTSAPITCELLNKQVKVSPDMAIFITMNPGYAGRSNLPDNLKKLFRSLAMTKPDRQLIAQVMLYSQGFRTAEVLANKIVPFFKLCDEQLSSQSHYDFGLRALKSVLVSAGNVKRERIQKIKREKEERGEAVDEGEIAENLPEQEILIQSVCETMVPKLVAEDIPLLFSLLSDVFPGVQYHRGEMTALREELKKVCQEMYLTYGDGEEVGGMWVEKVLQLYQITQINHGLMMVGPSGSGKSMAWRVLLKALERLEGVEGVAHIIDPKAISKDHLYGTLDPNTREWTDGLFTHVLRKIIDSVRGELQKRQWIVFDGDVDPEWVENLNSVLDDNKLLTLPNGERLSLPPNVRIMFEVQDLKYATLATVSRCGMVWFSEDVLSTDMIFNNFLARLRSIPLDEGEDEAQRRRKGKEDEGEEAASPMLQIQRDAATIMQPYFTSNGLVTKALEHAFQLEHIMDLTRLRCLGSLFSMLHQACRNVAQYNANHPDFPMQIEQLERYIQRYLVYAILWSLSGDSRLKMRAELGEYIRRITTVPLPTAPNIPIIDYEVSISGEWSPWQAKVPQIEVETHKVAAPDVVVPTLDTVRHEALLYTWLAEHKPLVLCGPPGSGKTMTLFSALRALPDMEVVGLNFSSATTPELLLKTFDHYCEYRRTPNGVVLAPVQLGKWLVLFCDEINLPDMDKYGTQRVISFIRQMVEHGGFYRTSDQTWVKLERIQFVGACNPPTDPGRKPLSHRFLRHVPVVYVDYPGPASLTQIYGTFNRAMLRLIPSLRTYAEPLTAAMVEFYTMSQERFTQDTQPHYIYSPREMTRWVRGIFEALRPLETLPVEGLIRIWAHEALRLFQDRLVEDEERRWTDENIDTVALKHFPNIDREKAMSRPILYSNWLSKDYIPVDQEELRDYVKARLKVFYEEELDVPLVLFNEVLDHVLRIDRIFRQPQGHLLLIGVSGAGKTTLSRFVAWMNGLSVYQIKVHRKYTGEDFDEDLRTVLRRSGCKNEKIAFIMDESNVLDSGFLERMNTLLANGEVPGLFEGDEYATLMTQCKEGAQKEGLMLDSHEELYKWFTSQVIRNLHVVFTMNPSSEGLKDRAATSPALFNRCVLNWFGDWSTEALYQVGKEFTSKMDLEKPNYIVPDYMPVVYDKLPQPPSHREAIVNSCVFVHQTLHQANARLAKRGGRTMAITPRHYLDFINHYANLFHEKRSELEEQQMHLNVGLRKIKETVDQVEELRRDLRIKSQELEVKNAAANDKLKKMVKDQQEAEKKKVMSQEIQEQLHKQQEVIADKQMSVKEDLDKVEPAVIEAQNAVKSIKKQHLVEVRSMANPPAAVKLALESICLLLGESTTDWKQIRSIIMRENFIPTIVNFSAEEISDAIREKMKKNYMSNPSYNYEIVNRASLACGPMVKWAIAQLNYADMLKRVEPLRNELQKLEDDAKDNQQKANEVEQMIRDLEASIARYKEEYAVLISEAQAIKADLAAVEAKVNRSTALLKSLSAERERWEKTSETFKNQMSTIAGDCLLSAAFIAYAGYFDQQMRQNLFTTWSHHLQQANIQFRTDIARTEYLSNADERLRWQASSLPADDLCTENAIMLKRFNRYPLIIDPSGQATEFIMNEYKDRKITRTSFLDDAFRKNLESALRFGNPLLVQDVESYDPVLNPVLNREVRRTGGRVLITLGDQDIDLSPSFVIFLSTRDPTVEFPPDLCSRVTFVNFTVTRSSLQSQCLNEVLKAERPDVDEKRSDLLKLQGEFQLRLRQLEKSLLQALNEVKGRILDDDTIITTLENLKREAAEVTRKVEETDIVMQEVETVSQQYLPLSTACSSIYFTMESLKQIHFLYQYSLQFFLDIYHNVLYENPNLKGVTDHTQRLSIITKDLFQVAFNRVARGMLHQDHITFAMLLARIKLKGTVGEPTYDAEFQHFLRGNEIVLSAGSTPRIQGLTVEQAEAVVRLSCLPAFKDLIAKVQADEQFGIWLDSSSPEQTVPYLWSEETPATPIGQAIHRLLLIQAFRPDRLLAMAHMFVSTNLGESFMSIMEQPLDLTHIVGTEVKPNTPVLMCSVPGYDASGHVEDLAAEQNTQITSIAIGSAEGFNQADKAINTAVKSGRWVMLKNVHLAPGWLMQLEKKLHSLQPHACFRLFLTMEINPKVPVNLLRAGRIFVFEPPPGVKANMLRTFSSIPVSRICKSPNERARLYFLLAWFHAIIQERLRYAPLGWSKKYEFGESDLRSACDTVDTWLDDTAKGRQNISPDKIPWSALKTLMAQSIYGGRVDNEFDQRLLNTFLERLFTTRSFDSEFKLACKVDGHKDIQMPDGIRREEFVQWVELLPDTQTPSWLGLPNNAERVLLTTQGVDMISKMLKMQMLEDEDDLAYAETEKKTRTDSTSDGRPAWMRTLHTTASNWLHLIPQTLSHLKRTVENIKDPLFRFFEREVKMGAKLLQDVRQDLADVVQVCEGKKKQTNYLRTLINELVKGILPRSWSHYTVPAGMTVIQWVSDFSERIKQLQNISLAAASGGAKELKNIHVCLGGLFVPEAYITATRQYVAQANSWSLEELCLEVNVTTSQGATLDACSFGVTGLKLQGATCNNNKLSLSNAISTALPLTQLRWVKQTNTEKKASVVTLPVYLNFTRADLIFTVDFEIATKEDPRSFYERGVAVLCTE
UniProt Q9Y6G9: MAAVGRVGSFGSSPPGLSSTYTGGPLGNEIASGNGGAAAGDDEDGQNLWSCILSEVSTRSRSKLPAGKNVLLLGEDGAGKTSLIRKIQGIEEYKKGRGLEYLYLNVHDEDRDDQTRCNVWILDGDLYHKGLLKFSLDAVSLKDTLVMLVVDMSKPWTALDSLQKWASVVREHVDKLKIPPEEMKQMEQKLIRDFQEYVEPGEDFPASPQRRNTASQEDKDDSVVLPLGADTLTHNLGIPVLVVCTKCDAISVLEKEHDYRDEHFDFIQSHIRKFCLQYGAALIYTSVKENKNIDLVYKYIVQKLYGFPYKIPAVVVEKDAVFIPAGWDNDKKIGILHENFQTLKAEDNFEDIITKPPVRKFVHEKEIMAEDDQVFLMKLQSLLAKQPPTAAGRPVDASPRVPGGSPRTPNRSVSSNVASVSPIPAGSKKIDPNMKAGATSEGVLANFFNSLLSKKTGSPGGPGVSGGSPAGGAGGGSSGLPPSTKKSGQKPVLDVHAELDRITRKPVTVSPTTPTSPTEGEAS
UniProt O43237: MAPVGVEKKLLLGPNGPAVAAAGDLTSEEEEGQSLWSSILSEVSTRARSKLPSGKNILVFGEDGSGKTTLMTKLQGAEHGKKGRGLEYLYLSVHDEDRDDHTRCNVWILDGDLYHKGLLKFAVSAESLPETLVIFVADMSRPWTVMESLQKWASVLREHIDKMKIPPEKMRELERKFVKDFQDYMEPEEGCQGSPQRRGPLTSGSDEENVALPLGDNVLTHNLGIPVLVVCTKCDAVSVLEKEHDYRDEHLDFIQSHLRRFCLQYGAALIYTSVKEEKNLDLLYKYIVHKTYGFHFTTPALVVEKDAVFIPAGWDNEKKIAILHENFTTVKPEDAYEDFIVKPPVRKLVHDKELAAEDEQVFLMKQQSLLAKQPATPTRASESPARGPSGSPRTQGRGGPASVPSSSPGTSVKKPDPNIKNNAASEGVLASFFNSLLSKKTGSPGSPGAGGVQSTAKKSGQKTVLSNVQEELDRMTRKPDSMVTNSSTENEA

Molecular target: TAP-tagged RUFY1 (longer isoform) (human) (UniProt Q96T51)
Experiment: affinity purification with mass spectrometry; tandem affinity purification (streptavidin, then calmodulin resin) of TAP-RUFY1 from about 50 million stably expressing HEK293T cells; hits filtered with CRAPOME

| Substance | binding |
| --- | --- |
| Dynein heavy chain (DHC) (from UniProt Q14204 1-4646) | binds |
| dynein light intermediate chain 1 (LIC1), endogenous (from UniProt Q9Y6G9 1-523) | binds |
| dynein light intermediate chain 2 (LIC2) (from UniProt O43237 1-492) | binds |
| p50 (dynamitin) (from UniProt Q13561 1-401) | binds |
| p150^glued (dynactin) (from UniProt Q14203-1 1-1278) | binds |

No constants are given. Whether binding was seen depends on the method and setting. In cells and extracts the contact can be indirect. A yes stands for co-enrichment or nearness to the bait. Other partners may have been found.
